These are yes or no findings as the source states them, for the method shown. In cells and extracts the contact can be indirect. Some results given as binding are weak or reduced against the parent protein; the word gives no strength.
How the values were obtained:
[1] = target: Fused in sarcoma (FUS) (human (endogenous in hiPSC-derived motor neurons)) (UniProt P35637); assay: co-IP; total cell lysates of wild-type iPSC-derived motor neurons, with or without RNase A treatment; anti-FUS or anti-HNRNPK antibody 30 min at 4°C, Protein-G Dynabeads 1.5 h at 4°C, three washes with Brain immunoprecipitation buffer; bound proteins detected by Western blotting
[2] = target: heterogeneous nuclear ribonucleoprotein K (HNRNPK) (human (endogenous in hiPSC-derived motor neurons)) (UniProt P61978); assay: as above

Amino acid sequences for entries named in this document (tags omitted).
UniProt P35637: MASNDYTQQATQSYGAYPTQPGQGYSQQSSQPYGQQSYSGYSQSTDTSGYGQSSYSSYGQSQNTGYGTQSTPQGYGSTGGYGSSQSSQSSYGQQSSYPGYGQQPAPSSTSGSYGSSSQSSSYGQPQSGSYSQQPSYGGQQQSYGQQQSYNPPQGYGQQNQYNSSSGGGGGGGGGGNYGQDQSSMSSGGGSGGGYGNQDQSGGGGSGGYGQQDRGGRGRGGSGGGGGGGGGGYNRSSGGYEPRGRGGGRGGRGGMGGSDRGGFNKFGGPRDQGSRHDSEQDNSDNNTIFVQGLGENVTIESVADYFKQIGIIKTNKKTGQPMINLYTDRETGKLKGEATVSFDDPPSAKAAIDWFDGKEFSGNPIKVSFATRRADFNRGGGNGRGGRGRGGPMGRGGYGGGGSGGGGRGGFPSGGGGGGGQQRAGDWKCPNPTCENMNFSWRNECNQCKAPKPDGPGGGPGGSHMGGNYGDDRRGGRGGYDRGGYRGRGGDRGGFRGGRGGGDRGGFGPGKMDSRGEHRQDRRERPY

Substance | binding [1] | binding [2]
heterogeneous nuclear ribonucleoprotein K (HNRNPK) (from UniProt P61978 1-463) | binds | 
Fused in sarcoma (FUS) (from UniProt P35637 1-526) |  | binds weakly

From paper PMC9698725
